Reference: PubChem BioAssay AID743121 (NCATS, 2013)

Test: 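Knock-downs that sensitise breast cancer cells to camptothecin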 (primary screen)
Cell system: MDA-MB-231 cells, a human breast cancer line
Reagent: single siRNA against human genes, 20 nM siRNA (0.8 pmol per well)
Time to read-out: 120 h (drug added 48 h after transfection, read 72 h later)
Challenge: camptothecin 20 nM (about EC30) for 72 h; vehicle 0.1% DMSO in parallel plates
Measurement: 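CellTiter-Glo ATP signal, scaled to control siRNA as percent viability; sensitisation given as log2 of untreated divided by camptothecin-treated viability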
Reading the numbers: log2 vehicle/camptothecin viability: higher = stronger sensitisation to camptothecin; viability with camptothecin and viability without drug: higher = more viable cells
Rule for the call: 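Active genes have an RSA gene-level p-value below 0.001, computed from the ratios of their separate siRNAs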
Shown is a random part of about 26,000 reagents. Of all reagents, 167 (0.63%) were called active. 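Calls are per gene from RSA p-values that are not deposited; an individual active-marked siRNA can sensitise only weakly.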 A number with no mark means an inactive call. The numbers tell different reagents against one gene apart.

Gene | siRNA no. | log2 vehicle/camptothecin viability | viability with camptothecin (% of control) | viability without drug (% of control)
UBL4B (ubiquitin like 4B) | 1 | -0.347 | 82 | 64.5
UBL4B (ubiquitin like 4B) | 2 | -0.164 | 101 | 90.4
UBL4B (ubiquitin like 4B) | 3 | 0.00454 | 78.5 | 78.8
GPER1 (G protein-coupled estrogen receptor 1) | 1 | 0.791 | 47 | 81.4
GPER1 (G protein-coupled estrogen receptor 1) | 2 | -0.359 | 63.3 | 49.3
GPER1 (G protein-coupled estrogen receptor 1) | 3 | -0.184 | 101 | 89
GPER1 (G protein-coupled estrogen receptor 1) | 4 | -0.324 | 31.9 | 25.5
ABCG5 (ATP binding cassette subfamily G member 5) | 1 | -0.0478 | 45.7 | 44.2
ABCG5 (ATP binding cassette subfamily G member 5) | 2 | -0.0485 | 49.3 | 47.6
ABCG5 (ATP binding cassette subfamily G member 5) | 3 | -0.0789 | 101 | 95.6
ABCG5 (ATP binding cassette subfamily G member 5) | 4 | 0.173 | 66.5 | 74.9
NFATC4 (nuclear factor of activated T cells 4) | 1 | -0.582 | 99.9 | 66.7
NFATC4 (nuclear factor of activated T cells 4) | 2 | -0.204 | 118 | 102
NFATC4 (nuclear factor of activated T cells 4) | 3 | -0.284 | 89.2 | 73.3
NFATC4 (nuclear factor of activated T cells 4) | 4 | -0.111 | 70.6 | 65.4
TMEM219 (transmembrane protein 219) | 1 | -0.158 | 19.6 | 17.6
TMEM219 (transmembrane protein 219) | 2 | 0.0503 | 54.3 | 56.2
TMEM219 (transmembrane protein 219) | 3 | -0.276 | 73.2 | 60.5
TMEM219 (transmembrane protein 219) | 4 | -0.225 | 57.3 | 49.1
ANKK1 (ankyrin repeat and kinase domain containing 1) | 1 | -0.071 | 101 | 96.4
ANKK1 (ankyrin repeat and kinase domain containing 1) | 2 | 0.216 | 85 | 98.7
ANKK1 (ankyrin repeat and kinase domain containing 1) | 3 | -0.416 | 70.6 | 52.9
ANKK1 (ankyrin repeat and kinase domain containing 1) | 4 | -0.181 | 62.8 | 55.4
CXXC4 (CXXC finger protein 4) | 1 | -0.0933 | 111 | 104
CXXC4 (CXXC finger protein 4) | 2 | -0.472 | 91 | 65.6
CXXC4 (CXXC finger protein 4) | 3 | 0.199 | 69.6 | 79.9
CXXC4 (CXXC finger protein 4) | 4 | -0.428 | 24.6 | 18.3
TSPYL2 (TSPY like 2) | 1 | -0.187 | 95.7 | 84.1
TSPYL2 (TSPY like 2) | 2 | -0.167 | 82.3 | 73.4
TSPYL2 (TSPY like 2) | 3 | -0.56 | 84.1 | 57
TSPYL2 (TSPY like 2) | 4 | 0.179 | 39.3 | 44.5
DDX41 (DEAD-box helicase 41) | 1 | -0.336 | 57.2 | 45.3
DDX41 (DEAD-box helicase 41) | 2 | -0.519 | 50.1 | 34.9
DDX41 (DEAD-box helicase 41) | 3 | -0.181 | 54.5 | 48.1
LRP6 (LDL receptor related protein 6) | 1 | -0.212 | 72.8 | 62.9
LRP6 (LDL receptor related protein 6) | 2 | -0.4 | 148 | 112
LRP6 (LDL receptor related protein 6) | 3 | -0.265 | 74.6 | 62.1
LRP6 (LDL receptor related protein 6) | 4 | -0.0216 | 90.3 | 89
NTRK1 (neurotrophic receptor tyrosine kinase 1) | 1 | -0.49 | 29.9 | 21.3
NTRK1 (neurotrophic receptor tyrosine kinase 1) | 2 | 0.165 | 73.5 | 82.4
NTRK1 (neurotrophic receptor tyrosine kinase 1) | 3 | -0.171 | 85.4 | 75.8
NTRK1 (neurotrophic receptor tyrosine kinase 1) | 4 | 0.103 | 65.8 | 70.7
DAGLA (diacylglycerol lipase alpha) | 1 | -0.168 | 44.2 | 39.4
DAGLA (diacylglycerol lipase alpha) | 2 | -0.053 | 85.1 | 82.1
DAGLA (diacylglycerol lipase alpha) | 3 | 0.0522 | 63.2 | 65.5
DAGLA (diacylglycerol lipase alpha) | 4 | -0.00492 | 105 | 105
CCNG2 (cyclin G2) | 1 | -0.138 | 95.9 | 87.2
CCNG2 (cyclin G2) | 2 | -0.12 | 91.4 | 84.1
CCNG2 (cyclin G2) | 3 | -0.308 | 110 | 88.8
CCNG2 (cyclin G2) | 4 | -0.215 | 60.2 | 51.9
ODC1 (ornithine decarboxylase 1) | 1 | -0.412 | 42.8 | 32.1
ODC1 (ornithine decarboxylase 1) | 2 | -0.371 | 51.5 | 39.8
ODC1 (ornithine decarboxylase 1) | 3 | -0.202 | 39 | 33.9
ODC1 (ornithine decarboxylase 1) | 4 | -0.0905 | 100 | 94.3
BACH2 (BACH transcriptional regulator 2) | 1 | -0.31 | 54.3 | 43.8
BACH2 (BACH transcriptional regulator 2) | 2 | -0.181 | 44.2 | 39
BACH2 (BACH transcriptional regulator 2) | 3 | -0.316 | 84.7 | 68
BACH2 (BACH transcriptional regulator 2) | 4 | -0.138 | 91.2 | 82.9
AGTRAP (angiotensin II receptor associated protein) | 1 | -0.528 | 46.1 | 32
AGTRAP (angiotensin II receptor associated protein) | 2 | 0.112 | 51 | 55.1
AGTRAP (angiotensin II receptor associated protein) | 3 | -0.346 | 106 | 83.6
AGTRAP (angiotensin II receptor associated protein) | 4 | -0.135 | 78.5 | 71.5
BCL2L13 (BCL2 like 13) | 1 | -0.406 | 79.3 | 59.9
BCL2L13 (BCL2 like 13) | 2 | 0.0786 | 77.1 | 81.4
BCL2L13 (BCL2 like 13) | 3 | -0.698 | 53.5 | 33
BCL2L13 (BCL2 like 13) | 4 | -0.741 | 38.5 | 23.1
DOLPP1 (dolichyldiphosphatase 1) | 1 | -0.206 | 96.7 | 83.9
DOLPP1 (dolichyldiphosphatase 1) | 2 | -0.213 | 34.5 | 29.8
DOLPP1 (dolichyldiphosphatase 1) | 3 | -0.227 | 88.5 | 75.6
DOLPP1 (dolichyldiphosphatase 1) | 4 | 0.204 | 28.2 | 32.5

In a second layout: entries from further up
AGTRAP (angiotensin II receptor associated protein) #4
- log2 vehicle/camptothecin viability: -0.135
- viability with camptothecin (% of control): 78.5
- viability without drug (% of control): 71.5

BCL2L13 (BCL2 like 13) #1
- log2 vehicle/camptothecin viability: -0.406
- viability with camptothecin (% of control): 79.3
- viability without drug (% of control): 59.9

BCL2L13 (BCL2 like 13) #2
- log2 vehicle/camptothecin viability: 0.0786
- viability with camptothecin (% of control): 77.1
- viability without drug (% of control): 81.4

BCL2L13 (BCL2 like 13) #3
- log2 vehicle/camptothecin viability: -0.698
- viability with camptothecin (% of control): 53.5
- viability without drug (% of control): 33

BCL2L13 (BCL2 like 13) #4
- log2 vehicle/camptothecin viability: -0.741
- viability with camptothecin (% of control): 38.5
- viability without drug (% of control): 23.1

DOLPP1 (dolichyldiphosphatase 1) #1
- log2 vehicle/camptothecin viability: -0.206
- viability with camptothecin (% of control): 96.7
- viability without drug (% of control): 83.9

DOLPP1 (dolichyldiphosphatase 1) #2
- log2 vehicle/camptothecin viability: -0.213
- viability with camptothecin (% of control): 34.5
- viability without drug (% of control): 29.8
